Experimental data reported in the supplement of paper PMC8728848.
Some of the results follow.

Tests used:
Test in all cases: glycan array binding signal (z-score within array); higher = stronger binding
Details in all cases: glycan notation: IUPAC condensed, linker removed
Neu5Ac(a2-3)GalNAc = molecular target: Neu5Ac(a2-3)GalNAc
Outline: (§1)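 Glycan array data came from 3228 arrays in the Consortium for Functional Glycomics database, and only arrays with an available protein sequence were kept. Glycan names were put into IUPAC-condensed notation, and columns mapping to the same glycan were averaged. The binding signal is a within-array Z-score, averaged across arrays of one protein sequence run at different concentrations or buffers and across linkers. A negative Z-score can be read as non-binding.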

[1] = molecular target: Neu5Ac(a2-3)GalNAc(b1-4)GlcNAc
Outline: as §1

[2] = molecular target: Neu5Ac(a2-3)[GalNAc(b1-4)]Gal(b1-4)Glc
Outline: as §1

[3] = molecular target: Neu5Ac(a2-3)[GalNAc(b1-4)]Gal(b1-4)GlcNAc
Outline: as §1

[4] = molecular target: Neu5Ac(a2-3)[GalNAc(b1-4)]Gal(b1-4)GlcNAc(b1-3)GalNAc
Outline: as §1

[5] = molecular target: Neu5Ac(a2-3)[Neu5Ac(a2-6)]GalNAc
Outline: as §1

Neu5Ac(a2-6)Gal = molecular target: Neu5Ac(a2-6)Gal
Outline: as §1

[6] = molecular target: Neu5Ac(a2-6)Gal(b1-3)GlcNAc(b1-3)[Gal(b1-4)GlcNAc(b1-6)]Gal(b1-4)Glc
Outline: as §1

Neu5Ac(a2-6)Gal(b1-4)Glc = molecular target: Neu5Ac(a2-6)Gal(b1-4)Glc
Outline: as §1

[7] = molecular target: Neu5Ac(a2-6)Gal(b1-4)GlcNAc
Outline: as §1

[8] = molecular target: Neu5Ac(a2-6)Gal(b1-4)GlcNAc(b1-2)Man
Outline: as §1

[9] = molecular target: Neu5Ac(a2-6)Gal(b1-4)GlcNAc(b1-2)Man(a1-3)Man(b1-4)GlcNAc(b1-4)GlcNAc
Outline: as §1

[10] = molecular target: Neu5Ac(a2-6)Gal(b1-4)GlcNAc(b1-2)Man(a1-3)[Gal(b1-4)GlcNAc(b1-2)Man(a1-6)]Man(b1-4)GlcNAc(b1-4)GlcNAc
Outline: as §1

[11] = molecular target: Neu5Ac(a2-6)Gal(b1-4)GlcNAc(b1-2)Man(a1-3)[GlcNAc(b1-2)Man(a1-6)]Man(b1-4)GlcNAc(b1-4)GlcNAc
Outline: as §1

[12] = molecular target: Neu5Ac(a2-6)Gal(b1-4)GlcNAc(b1-2)Man(a1-3)[GlcNAc(b1-4)][Neu5Ac(a2-6)Gal(b1-4)GlcNAc(b1-2)Man(a1-6)]Man(b1-4)GlcNAc(b1-4)GlcNAc
Outline: as §1

[13] = molecular target: Neu5Ac(a2-6)Gal(b1-4)GlcNAc(b1-2)Man(a1-3)[Man(a1-6)]Man(b1-4)GlcNAc(b1-4)GlcNAc
Outline: as §1

[14] = molecular target: Neu5Ac(a2-6)Gal(b1-4)GlcNAc(b1-2)Man(a1-3)[Neu5Ac(a2-3)Gal(b1-4)GlcNAc(b1-2)Man(a1-6)]Man(b1-4)GlcNAc(b1-4)GlcNAc
Outline: as §1

[15] = molecular target: Neu5Ac(a2-6)Gal(b1-4)GlcNAc(b1-2)Man(a1-3)[Neu5Ac(a2-6)Gal(b1-4)GlcNAc(b1-2)Man(a1-6)]Man(b1-4)GlcNAc(b1-4)GlcNAc
Outline: as §1

[16] = molecular target: Neu5Ac(a2-6)Gal(b1-4)GlcNAc(b1-2)Man(a1-3)[Neu5Ac(a2-6)Gal(b1-4)GlcNAc(b1-2)Man(a1-6)]Man(b1-4)GlcNAc(b1-4)[Fuc(a1-6)]GlcNAc
Outline: as §1

[17] = molecular target: Neu5Ac(a2-6)Gal(b1-4)GlcNAc(b1-2)Man(a1-6)Man(b1-4)GlcNAc(b1-4)GlcNAc
Outline: as §1

[18] = molecular target: Neu5Ac(a2-6)Gal(b1-4)GlcNAc(b1-2)Man(a1-6)[Gal(b1-4)GlcNAc(b1-2)Man(a1-3)]Man(b1-4)GlcNAc(b1-4)GlcNAc
Outline: as §1

[19] = molecular target: Neu5Ac(a2-6)Gal(b1-4)GlcNAc(b1-2)Man(a1-6)[GlcNAc(b1-2)Man(a1-3)]Man(b1-4)GlcNAc(b1-4)GlcNAc
Outline: as §1

[20] = molecular target: Neu5Ac(a2-6)Gal(b1-4)GlcNAc(b1-2)Man(a1-6)[Man(a1-3)]Man(b1-4)GlcNAc(b1-4)GlcNAc
Outline: as §1

[21] = molecular target: Neu5Ac(a2-6)Gal(b1-4)GlcNAc(b1-2)[Neu5Ac(a2-6)Gal(b1-4)GlcNAc(b1-4)]Man(a1-3)[GlcNAc(b1-4)][Neu5Ac(a2-6)Gal(b1-4)GlcNAc(b1-2)[Neu5Ac(a2-6)Gal(b1-4)GlcNAc(b1-6)]Man(a1-6)]Man(b1-4)GlcNAc(b1-4)GlcNAc
Outline: as §1

[22] = molecular target: Neu5Ac(a2-6)Gal(b1-4)GlcNAc(b1-2)[Neu5Ac(a2-6)Gal(b1-4)GlcNAc(b1-4)]Man(a1-3)[GlcNAc(b1-4)][Neu5Ac(a2-6)Gal(b1-4)GlcNAc(b1-4)Man(a1-6)]Man(b1-4)GlcNAc(b1-4)GlcNAc
Outline: as §1

[23] = molecular target: Neu5Ac(a2-6)Gal(b1-4)GlcNAc(b1-2)[Neu5Ac(a2-6)Gal(b1-4)GlcNAc(b1-6)]Man(a1-6)[Neu5Ac(a2-6)Gal(b1-4)GlcNAc(b1-2)Man(a1-3)][GlcNAc(b1-4)]Man(b1-4)GlcNAc(b1-4)GlcNAc
Outline: as §1

[24] = molecular target: Neu5Ac(a2-6)Gal(b1-4)GlcNAc(b1-3)Gal(b1-3)GlcNAc
Outline: as §1

[25] = molecular target: Neu5Ac(a2-6)Gal(b1-4)GlcNAc(b1-3)Gal(b1-4)GlcNAc
Outline: as §1

[26] = molecular target: Neu5Ac(a2-6)Gal(b1-4)GlcNAc(b1-3)Gal(b1-4)GlcNAc(b1-2)Man(a1-3)[Neu5Ac(a2-6)Gal(b1-4)GlcNAc(b1-3)Gal(b1-4)GlcNAc(b1-2)Man(a1-6)]GalNAc
Outline: as §1

[27] = molecular target: Neu5Ac(a2-6)Gal(b1-4)GlcNAc(b1-3)Gal(b1-4)GlcNAc(b1-3)Gal(b1-4)GlcNAc
Outline: as §1

[28] = molecular target: Neu5Ac(a2-6)Gal(b1-4)GlcNAc(b1-3)Gal(b1-4)GlcNAc(b1-3)Gal(b1-4)GlcNAc(b1-2)Man(a1-3)[Neu5Ac(a2-6)Gal(b1-4)GlcNAc(b1-3)Gal(b1-4)GlcNAc(b1-3)Gal(b1-4)GlcNAc(b1-2)Man(a1-6)]GalNAc
Outline: as §1

[29] = molecular target: Neu5Ac(a2-6)Gal(b1-4)GlcNAc(b1-3)Gal(b1-4)GlcNAc(b1-3)GalNAc
Outline: as §1

[30] = molecular target: Neu5Ac(a2-6)Gal(b1-4)GlcNAc(b1-3)Gal(b1-4)GlcNAc(b1-3)[Neu5Ac(a2-6)Gal(b1-4)GlcNAc(b1-3)Gal(b1-4)GlcNAc(b1-6)]GalNAc
Outline: as §1

[31] = molecular target: Neu5Ac(a2-6)Gal(b1-4)GlcNAc(b1-3)Gal(b1-4)GlcNAc(b1-6)[Gal(b1-3)]GalNAc
Outline: as §1

[32] = molecular target: Neu5Ac(a2-6)Gal(b1-4)GlcNAc(b1-3)Gal(b1-4)[Fuc(a1-3)]GlcNAc(b1-3)Gal(b1-4)[Fuc(a1-3)]GlcNAc
Outline: as §1

[33] = molecular target: Neu5Ac(a2-6)Gal(b1-4)GlcNAc(b1-3)GalNAc
Outline: as §1

[34] = molecular target: Neu5Ac(a2-6)Gal(b1-4)GlcNAc(b1-3)[Neu5Ac(a2-6)Gal(b1-4)GlcNAc(b1-6)]GalNAc
Outline: as §1

[35] = molecular target: Neu5Ac(a2-6)Gal(b1-4)GlcNAc(b1-6)GalNAc
Outline: as §1

[36] = molecular target: Neu5Ac(a2-6)Gal(b1-4)GlcNAc(b1-6)[Gal(b1-3)GlcNAc(b1-3)]Gal(b1-4)Glc
Outline: as §1

[37] = molecular target: Neu5Ac(a2-6)Gal(b1-4)GlcNAc(b1-6)[Gal(b1-3)]GalNAc
Outline: as §1

[38] = molecular target: Neu5Ac(a2-6)Gal(b1-4)GlcNAc6S
Outline: as §1

Neu5Ac(a2-6)GalNAc = molecular target: Neu5Ac(a2-6)GalNAc
Outline: as §1

[39] = molecular target: Neu5Ac(a2-6)GalNAc(b1-4)GlcNAc
Outline: as §1

[40] = molecular target: Neu5Ac(a2-6)GalNAc(b1-4)GlcNAc6S
Outline: as §1

[41] = molecular target: Neu5Ac(a2-6)GlcNAc(b1-4)GlcNAc
Outline: as §1

B1: Aap arpt (Staphylococcus epidermidis) (protein)
chain: NNEAPQMSSTLQAEEGSNAEAPQSEPTKAEEGGNAEAAQSEPTKAEEGGNAEAPQSEPTKAEEGGNAEAAQSEPTKTEEGSNVKAAQSEPTKAEEGSNAEAPQSEPTKTEEGSNAKAAQSEPTKAEEGGNAEAAQSEPTKTEEGSNAEAPQSEPTKAEEGGYAEAPQSEPTKTEEGGNAEAPNVPTIKA
glycan array binding signal (z-score) (Neu5Ac(a2-3)GalNAc): -0.745
glycan array binding signal (z-score) [1]: 0.469
glycan array binding signal (z-score) [2]: 1.82
glycan array binding signal (z-score) [3]: -0.204
glycan array binding signal (z-score) [4]: -0.324
glycan array binding signal (z-score) [5]: 0.657
glycan array binding signal (z-score) (Neu5Ac(a2-6)Gal): -1.56
glycan array binding signal (z-score) [6]: -1.04
glycan array binding signal (z-score) (Neu5Ac(a2-6)Gal(b1-4)Glc): -1.1
glycan array binding signal (z-score) [7]: -0.334
glycan array binding signal (z-score) [8]: 1.84
glycan array binding signal (z-score) [9]: 1.59
glycan array binding signal (z-score) [10]: -0.638
glycan array binding signal (z-score) [11]: -0.011
glycan array binding signal (z-score) [12]: 0.284
glycan array binding signal (z-score) [13]: 0.68
glycan array binding signal (z-score) [14]: 0.503
glycan array binding signal (z-score) [15]: -0.148
glycan array binding signal (z-score) [16]: 1.93
glycan array binding signal (z-score) [17]: 0.226
glycan array binding signal (z-score) [18]: 0.156
glycan array binding signal (z-score) [19]: 2.64
glycan array binding signal (z-score) [20]: 0.224
glycan array binding signal (z-score) [21]: -1.13
glycan array binding signal (z-score) [22]: -0.548
glycan array binding signal (z-score) [23]: -0.716
glycan array binding signal (z-score) [24]: 0.451
glycan array binding signal (z-score) [25]: -0.635
glycan array binding signal (z-score) [26]: -0.269
glycan array binding signal (z-score) [27]: 0.095
glycan array binding signal (z-score) [28]: -0.663
glycan array binding signal (z-score) [29]: -0.486
glycan array binding signal (z-score) [30]: -0.01
glycan array binding signal (z-score) [31]: 0.045
glycan array binding signal (z-score) [32]: -0.9
glycan array binding signal (z-score) [33]: -0.444
glycan array binding signal (z-score) [34]: -1.09
glycan array binding signal (z-score) [35]: 1.21
glycan array binding signal (z-score) [36]: 1.38
glycan array binding signal (z-score) [37]: 0.173
glycan array binding signal (z-score) [38]: -0.907
glycan array binding signal (z-score) (Neu5Ac(a2-6)GalNAc): -0.469
glycan array binding signal (z-score) [39]: -0.35
glycan array binding signal (z-score) [40]: 0.669
glycan array binding signal (z-score) [41]: -0.24
